Assays:
[1] = general procedure: Fmoc solid-phase peptide synthesis; 2-chlorotrityl resin; HATU/DIEA; details: whole synthesis, scale 2.4 mmol
[2] = general procedure: Fmoc solid-phase peptide synthesis; Fmoc-AA-diaminoethane trityl resin; 2-chlorotrityl resin; HATU/DIEA; details: whole synthesis, scale of the general procedure 0.1 mmol

## Dov-Val-Dil-Dap-Phe (AF)
[1]
  isolated mass: 1.6 g
[2]
  isolated yield: 89%

Source: patent US9463252B2 (priority 2008, dated 2016)
